Measured values taken from publication PMC8734066.
No constants are given. Whether binding was seen depends on the method and setting. In cells and extracts the contact can be indirect. Some entries that bind do so weakly or less than the wild type.

By UniProt entry, the sequences of proteins in these tests, tags left out. Residues count along the entry.
UniProt Q15843, residues 1-76: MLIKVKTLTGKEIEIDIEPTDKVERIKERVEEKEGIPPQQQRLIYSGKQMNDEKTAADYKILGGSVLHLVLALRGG
UniProt D3ZEF4: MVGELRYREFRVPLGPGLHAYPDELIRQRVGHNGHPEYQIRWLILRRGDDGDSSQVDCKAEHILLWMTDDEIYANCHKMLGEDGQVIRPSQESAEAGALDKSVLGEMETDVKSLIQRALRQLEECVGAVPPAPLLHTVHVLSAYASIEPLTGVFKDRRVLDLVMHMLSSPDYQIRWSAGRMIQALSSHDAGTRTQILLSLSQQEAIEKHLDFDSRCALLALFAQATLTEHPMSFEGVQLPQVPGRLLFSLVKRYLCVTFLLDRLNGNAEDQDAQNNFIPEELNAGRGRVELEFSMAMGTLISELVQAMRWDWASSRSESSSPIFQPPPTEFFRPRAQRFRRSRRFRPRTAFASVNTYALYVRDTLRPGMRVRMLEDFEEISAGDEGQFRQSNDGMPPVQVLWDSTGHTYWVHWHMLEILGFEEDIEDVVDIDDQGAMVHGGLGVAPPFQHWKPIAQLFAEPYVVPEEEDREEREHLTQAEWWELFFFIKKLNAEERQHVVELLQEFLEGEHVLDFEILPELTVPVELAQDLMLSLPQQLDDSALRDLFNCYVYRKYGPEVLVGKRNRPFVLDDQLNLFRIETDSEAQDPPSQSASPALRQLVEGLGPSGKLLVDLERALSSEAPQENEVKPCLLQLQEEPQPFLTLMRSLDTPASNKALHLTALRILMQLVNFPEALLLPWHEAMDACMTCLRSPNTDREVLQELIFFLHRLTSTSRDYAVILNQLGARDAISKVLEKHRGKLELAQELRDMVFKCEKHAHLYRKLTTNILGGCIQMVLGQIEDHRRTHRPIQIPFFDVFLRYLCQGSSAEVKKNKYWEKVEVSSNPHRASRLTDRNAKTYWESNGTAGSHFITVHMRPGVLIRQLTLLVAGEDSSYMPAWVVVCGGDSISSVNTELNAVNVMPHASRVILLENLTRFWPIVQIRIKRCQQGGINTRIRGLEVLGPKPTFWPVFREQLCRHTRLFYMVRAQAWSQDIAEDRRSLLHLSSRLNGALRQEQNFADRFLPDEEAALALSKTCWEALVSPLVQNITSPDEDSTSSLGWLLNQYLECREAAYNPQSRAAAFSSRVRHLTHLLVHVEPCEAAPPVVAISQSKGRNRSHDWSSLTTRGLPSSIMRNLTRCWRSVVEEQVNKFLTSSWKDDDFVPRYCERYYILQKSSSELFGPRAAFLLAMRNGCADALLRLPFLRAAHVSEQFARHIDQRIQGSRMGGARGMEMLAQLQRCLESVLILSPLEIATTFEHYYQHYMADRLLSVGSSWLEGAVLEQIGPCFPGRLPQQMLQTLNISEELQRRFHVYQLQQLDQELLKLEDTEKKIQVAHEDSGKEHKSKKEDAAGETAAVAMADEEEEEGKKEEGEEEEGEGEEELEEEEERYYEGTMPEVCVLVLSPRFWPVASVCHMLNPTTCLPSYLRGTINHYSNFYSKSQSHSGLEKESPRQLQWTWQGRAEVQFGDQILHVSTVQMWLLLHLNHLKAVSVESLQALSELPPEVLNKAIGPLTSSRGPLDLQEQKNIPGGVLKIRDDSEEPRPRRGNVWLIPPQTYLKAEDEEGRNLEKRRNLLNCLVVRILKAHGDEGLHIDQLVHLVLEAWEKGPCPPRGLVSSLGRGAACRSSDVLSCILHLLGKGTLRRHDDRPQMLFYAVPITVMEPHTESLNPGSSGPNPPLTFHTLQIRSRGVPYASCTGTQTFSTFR

Target: HA-NEDD8 (neural precursor cell-expressed developmentally down-regulated gene 8) (UniProt Q15843)
Test: co-IP; lysates of rat primary cortical neurons infected with AAV9 HA-NEDD8 (or the HA tag alone); tag-specific immunoprecipitation with anti-HA microbeads; neurons with or without TNFα and insulin for 24 h

binding: binds
Substance: Cullin-7 (from UniProt D3ZEF4 1-1692)
